# Microarray screen: hit calls

Data from the ROBIN nucleic acid binder screens, doi:10.1002/anie.202211358.

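Compounds were printed on reactive glass slides in duplicate spots, a dye-labelled oligonucleotide was laid over them, and the fluorescence left after washing was read. The data file lists only calls. An earlier report of the laboratory on the PreQ1, TPP and SAM-II riboswitches (doi:10.1038/s41467-019-09493-3) used 1 µM RNA for 2 h and required a mean Z-score above 3 (spot signal-to-noise against the whole library), a score well above that on a control array, and duplicate spots agreeing (coefficient of variation under 100); it then also set aside compounds that hit other targets, which this list keeps. The cut-offs behind this list may differ. These are primary screening calls, not affinities; a compound without a hit may have attached poorly or may still bind in solution.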
“hit” means called a hit, “none” means screened and not called a hit.
This is an unselected part of the compounds tested.
A dash means that no call is listed here.

Oligonucleotides screened, 5′ to 3′:
T1: TPP riboswitch RNA three-way junction, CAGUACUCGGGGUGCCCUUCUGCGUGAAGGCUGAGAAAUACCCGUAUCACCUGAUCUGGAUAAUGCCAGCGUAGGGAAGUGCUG. About 160 hits among about 24,000 compounds.
T2: SAM-II riboswitch RNA pseudoknot, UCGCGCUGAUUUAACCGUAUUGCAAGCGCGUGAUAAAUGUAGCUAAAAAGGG. About 200 hits among about 21,000 compounds.
T3: PreQ1 riboswitch RNA pseudoknot, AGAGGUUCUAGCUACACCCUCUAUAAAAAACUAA. From B. subtilis. About 170 hits among about 24,000 compounds.

| # | Compound | T1 | T2 | T3 |
|---|---|---|---|---|
| 1 | `COc1cccc(NC(=O)c2sc3nc(-c4ccccc4)nc(C)c3c2N)c1` | none | none | none |
| 2 | `CNC(C)CC1CCCCC1` (configuration not stated) | none | none | none |
| 3 | `Nc1c(C(=O)Nc2ccccc2)nnn1Cc1ccccc1` | none | none | none |
| 4 | `C=CCOc1ccc(C2C(C#N)=C(N)Oc3cc4c(cc32)OCO4)cc1Cl` (configuration not stated) | none | none | none |
| 5 | `Nc1cc(C(F)(F)F)[nH]n1` | none | none | none |
| 6 | `CS(=O)(=O)c1cnc(NCCCc2ccccn2)nc1C1CCCNC1` (configuration not stated) | none | none | none |
| 7 | `CC1=CC(C)C2(CO)COC(c3ccc(O)cc3)C1C2C` (configuration not stated) | none | none | none |
| 8 | `CN1CCN(CCOc2cc(OC3CCOCC3)c3c(Nc4c(Cl)ccc5c4OCO5)ncnc3c2)CC1` | none | none | none |
| 9 | `NC(=O)CCn1cc(CNCCN2CCNC2=O)c2ccccc21` | none | none | none |
| 10 | `CC1CCN(c2nc(N)cc(=O)[nH]2)CC1` | none | none | none |
| 11 | `Cc1cc(C)n2nc(NCc3ccc(Br)cc3)nc2n1` | none | - | none |
| 12 | `CCCNc1nc(OC)nc(N2CC3CC(C2)c2cccc(=O)n2C3)n1` (configuration not stated) | none | none | none |
| 13 | `C=CCn1cc(CNCc2cc3cc(OC)ccc3[nH]2)c(C)n1` | none | none | none |
| 14 | `CCN(C)C(=O)c1cccc(S(=O)(=O)NC(C)c2nnc(N)s2)c1` (configuration not stated) | none | none | none |
| 15 | `N#CC1=C(N)Oc2[nH]nc(-c3ccccn3)c2C1c1ccc2c(c1)OCO2` (configuration not stated) | none | none | none |
| 16 | `CC(C)OC(=O)C1=C(N)Oc2c(oc(CO)cc2=O)C1c1ccc(F)cc1F` (configuration not stated) | none | none | none |
| 17 | `CCOC(=O)c1c(N)sc(C(=O)Nc2ccc(Cl)cc2)c1C` | none | none | none |
| 18 | `CC(C)C1CC(C)(c2csc(N)n2)OC1=O` (configuration not stated) | none | none | none |
| 19 | `N=c1nc(N2CCCCC2)cc(N)n1O` | none | none | none |
| 20 | `Clc1ccc(Nc2c3c(nc4nncn24)CCC3)cc1` | none | - | none |
| 21 | `Nc1c(C(=O)c2ccc(Cl)cc2)oc2ccccc12` | none | none | none |
| 22 | `NCCCC(N)(C(=O)O)C(F)F` (configuration not stated) | none | none | none |
| 23 | `CCCCSc1nc(N)cc(N2C[C@H](O)[C@@H](N3CCOCC3)C2)n1` | none | none | none |
| 24 | `Cc1noc(-c2ccc(N3CCCn4nc(CN(C)CCO)cc4C3)nc2)n1` | none | none | none |
| 25 | `Cn1c(-c2ccc3c(c2)OCO3)cnc1NCc1cc(Br)ccc1F` | none | none | none |
| 26 | `N#Cc1nc(-c2ccc(S(=O)(=O)N3CCCCC3)cc2)oc1NCC1CCCO1` (configuration not stated) | none | - | none |
| 27 | `CC(=O)N1CCN(c2ccc(Nc3cc(C)nc4nc(-c5ccco5)nn34)cc2)CC1` | none | none | none |
| 28 | `Cc1nc(N)nc(C)c1CC(=O)N1CCC(c2nc3c(C)cccc3[nH]2)CC1` | none | none | none |
| 29 | `CCOc1ccc(S(=O)(=O)[C@H]2CS(=O)(=O)C[C@@H]2NCc2cccc(C)c2)cc1` | none | - | none |
| 30 | `O=C(c1ccn2nnnc2c1)N1CCC(C(O)CCc2ccccc2)CC1` (configuration not stated) | none | none | none |
| 31 | `N#CC1=C(N)OC2=C(C(=O)CCC2)C1c1ccc(N2CCCC2)cc1` (configuration not stated) | none | none | none |
| 32 | `Cc1c(CNC(=O)C2CC3(CCNCC3)CN2)oc2ccccc12` (configuration not stated) | none | none | none |
| 33 | `COc1ccccc1C1C(C(C)=O)=C(O)C(=O)N1CCN1CCNCC1` (configuration not stated) | none | none | none |
| 34 | `Nc1nc(N)c2c(n1)NC1=C(C(=O)CCC1)C2c1ccccc1` (configuration not stated) | none | none | none |
| 35 | `CCN(CC)c1ccc(Nc2nc3ccccc3n3cnnc23)c(C)c1` | none | none | none |
| 36 | `Cc1nc(C(F)(F)F)nc(N2CCOC3(CNCCOC3)C2)c1C` (configuration not stated) | none | none | none |
| 37 | `CC(C)O[C@H]1CN(C(=O)Nc2cccc(F)c2F)C[C@@H]1O` | none | none | none |
| 38 | `Nc1nc2c(s1)C(c1ccc(F)cc1)CC(=O)N2` (configuration not stated) | none | none | none |
| 39 | `Cc1ccc(C2C(C#N)=C(N)Oc3ccc4ccccc4c32)cc1` (configuration not stated) | none | none | none |
| 40 | `O=C(Nc1ccccc1)Nc1ccc(-c2ccc(C(=O)[C@H]3CCC[C@H]3C(=O)O)cc2)cc1` | none | none | none |
| 41 | `Nc1nonc1-c1noc(NCc2ccc(F)cc2)n1` | none | none | none |
| 42 | `Cn1cnc(-c2cc3nccc(Oc4ccc(NC(=S)NC(=O)Cc5ccccc5)cc4F)c3s2)c1` | none | none | none |

For reference, 4 entries once more:

Compound,T1,T2,T3
NC(=O)CCn1cc(CNCCN2CCNC2=O)c2ccccc21,none,none,none
C=CCOc1ccc(C2C(C#N)=C(N)Oc3cc4c(cc32)OCO4)cc1Cl (configuration not stated),none,none,none
N#Cc1nc(-c2ccc(S(=O)(=O)N3CCCCC3)cc2)oc1NCC1CCCO1 (configuration not stated),none,-,none
Cc1cc(C)n2nc(NCc3ccc(Br)cc3)nc2n1,none,-,none